Data source: PubChem BioAssay AID652243 (Drosophila RNAi Screening Center, 2013)

Purpose: 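Fly regulators of androgen-dependent reporter output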 (primary screen)
Cell system: Drosophila S2R+ cells
Knock-down reagent: long dsRNA against Drosophila genes
Duration: 72 h (48 h, then 24 h hormone)
Treatment: synthetic androgen R1881 at 10 nM for 24 h
Detection: 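Firefly light from an androgen-responsive reporter and Renilla control light per well, raw and unnormalised, for each of two replicates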
Scale: firefly reporter light: higher = more light from androgen-responsive reporter; Renilla control light: higher = more constitutive control signal (cell number, transfection)
Call rule: 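Hit when the log firefly-to-Renilla ratio dropped or increased by a fixed fold versus the mean of GFP or LacZ controls across duplicate plates; lowering cut given as 1.5 and as 3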
Calls: active = hit: reporter lowered or raised; inactive = no hit
The deposit covers about 24,000 reagents; this is a random part of those with a known target gene and a result. In the full data, 246 (1%) were called active. 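Plates not normalised; calls are printed but the firefly/Renilla ratio behind them is not deposited; fold cut for lowering reported inconsistently.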 The raw values are shown without normalisation. Reagent sequences are not shown. Not given: the amount of reagent.

no.	Target gene	amplicon	firefly reporter light, replicate 1	firefly reporter light, replicate 2	Renilla control light, replicate 1	Renilla control light, replicate 2	activity call
1	CG14110	DRSC10113	3.58e5	4.34e5	2.59e6	2.04e6	inactive
2	CG14764	DRSC05072	2.29e5	2.25e5	3.83e5	4.72e5	inactive
3	CG14764	DRSC06498	1.40e6	8.29e5	2.03e6	1.69e6	inactive
4	CG14764	DRSC06844	2.89e5	2.39e5	1.76e6	1.60e6	inactive
5	ND6 (retired record)	DRSC21271	6.45e5	7.64e5	1.99e6	1.55e6	inactive
6	ppk30	DRSC15302	1.34e5	1.26e5	1.62e6	2.22e6	inactive
7	CG4610	DRSC04477	3.45e5	3.67e5	2.99e6	2.50e6	inactive
8	CG4610	DRSC22397	3.81e5	7.94e5	8.81e5	2.28e6	inactive
9	CG4610	DRSC29602	3.68e5	4.30e5	1.08e6	1.08e6	inactive
10	CG10793	DRSC17760	1.94e5	2.41e5	2.68e6	2.57e6	inactive
11	CG6770	DRSC02992	2.71e5	1.84e5	7.68e5	6.45e5	inactive
12	CG6770	DRSC26414	2.89e5	1.86e5	5.80e5	6.40e5	inactive
13	CCT4	DRSC02865	1.32e5	1.82e5	1.82e6	1.69e6	inactive
14	CCT4	DRSC28909	3.42e5	4.08e5	7.78e5	8.48e5	inactive
15	ACXC	DRSC00846	3.05e5	2.93e5	1.85e6	2.15e6	inactive

Reformatted: entries from further up.
{"Target gene":"ND6 (retired record)","amplicon":"DRSC21271","firefly reporter light, replicate 1":6.45e5,"firefly reporter light, replicate 2":7.64e5,"Renilla control light, replicate 1":1.99e6,"Renilla control light, replicate 2":1.55e6,"activity call":"inactive"}
{"Target gene":"ppk30","amplicon":"DRSC15302","firefly reporter light, replicate 1":1.34e5,"firefly reporter light, replicate 2":1.26e5,"Renilla control light, replicate 1":1.62e6,"Renilla control light, replicate 2":2.22e6,"activity call":"inactive"}
{"Target gene":"CG4610","amplicon":"DRSC04477","firefly reporter light, replicate 1":3.45e5,"firefly reporter light, replicate 2":3.67e5,"Renilla control light, replicate 1":2.99e6,"Renilla control light, replicate 2":2.50e6,"activity call":"inactive"}
{"Target gene":"CG4610","amplicon":"DRSC22397","firefly reporter light, replicate 1":3.81e5,"firefly reporter light, replicate 2":7.94e5,"Renilla control light, replicate 1":8.81e5,"Renilla control light, replicate 2":2.28e6,"activity call":"inactive"}
{"Target gene":"CG4610","amplicon":"DRSC29602","firefly reporter light, replicate 1":3.68e5,"firefly reporter light, replicate 2":4.30e5,"Renilla control light, replicate 1":1.08e6,"Renilla control light, replicate 2":1.08e6,"activity call":"inactive"}

The listing continues:
no.	Target gene	amplicon	firefly reporter light, replicate 1	firefly reporter light, replicate 2	Renilla control light, replicate 1	Renilla control light, replicate 2	activity call
16	akirin	DRSC11000	5.56e5	3.19e5	1.02e6	7.40e5	inactive
17	akirin	DRSC26196	1.65e5	1.81e5	1.74e5	1.85e5	inactive
18	RpL18	DRSC11016	1.62e5	1.31e5	1.14e6	1.30e6	inactive
19	RpL18	DRSC22323	3.71e5	4.79e5	1.54e6	1.19e6	inactive
20	CG10587	DRSC11627	2.44e5	2.27e5	1.96e6	1.86e6	inactive
21	ACC	DRSC06059	63055	64298	1.80e5	1.80e5	inactive
22	ACC	DRSC07249	5.19e5	3.53e5	1.17e6	7.65e5	inactive
23	CG17283	DRSC15219	95711	47291	1.41e6	1.13e6	inactive
24	eIF3c	DRSC06905	70691	76491	7.44e5	7.44e5	inactive
25	CG10376	DRSC02049	9.62e5	1.16e6	8.66e5	1.05e6	inactive
26	CG10376	DRSC26744	6.20e5	5.47e5	8.18e5	7.23e5	inactive
27	CG10376	DRSC36846					inactive
28	CG30286	DRSC04070	1.83e5	2.92e5	1.28e6	1.53e6	inactive
29	Pxn	DRSC08685	5.60e5	6.16e5	1.51e6	1.73e6	inactive
30	Pxn	DRSC27895	4.88e5	4.35e5	1.25e6	1.08e6	inactive
31	CG1513	DRSC05194	1.53e5	1.78e5	1.61e5	1.90e5	inactive
32	CG1513	DRSC06553	2.01e5	2.83e5	3.65e6	4.51e6	active
33	CG1513	DRSC06554	3.95e5	2.71e5	2.65e6	2.29e6	inactive
34	Iru	DRSC14457	51691	65603	2.55e5	3.72e5	inactive
35	CG11396	DRSC11654	1.34e5	94766	2.01e6	2.02e6	inactive
36	CG33772	DRSC37803	7.78e5	5.50e5	1.45e6	9.69e5	inactive
37	CG42810	DRSC02533	2.25e5	2.49e5	9.04e5	1.18e6	inactive
38	unc	DRSC20511	1.84e5	1.62e5	8.36e5	4.59e5	inactive
39	unc	DRSC27962	3.98e5	3.11e5	1.54e6	9.15e5	inactive
40	CG1504	DRSC20513	2.75e5	1.40e5	9.16e5	4.75e5	inactive
41	CG1504	DRSC26901	2.37e5	3.29e5	5.75e5	7.03e5	inactive
